Experimental data published in publication PMC3819381.
These are yes or no findings as the source states them, for the method shown. Binding seen in cells or lysates may run through a third protein. Some entries that bind do so weakly or less than the wild type. For some of these results: Where a sequence is shown, tags or fusion partners need not be part of it.

Chains of the proteins cited; added tags and fusions are not shown.
UniProt P16220: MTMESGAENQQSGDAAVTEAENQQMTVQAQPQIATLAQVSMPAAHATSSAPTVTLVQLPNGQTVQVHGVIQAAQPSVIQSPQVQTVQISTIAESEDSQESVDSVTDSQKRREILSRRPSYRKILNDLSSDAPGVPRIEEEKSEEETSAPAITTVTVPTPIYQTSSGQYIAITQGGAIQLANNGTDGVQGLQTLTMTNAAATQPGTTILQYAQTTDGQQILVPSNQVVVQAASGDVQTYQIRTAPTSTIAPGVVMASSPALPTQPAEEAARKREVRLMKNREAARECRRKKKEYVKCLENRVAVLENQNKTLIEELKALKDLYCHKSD
UniProt P51532: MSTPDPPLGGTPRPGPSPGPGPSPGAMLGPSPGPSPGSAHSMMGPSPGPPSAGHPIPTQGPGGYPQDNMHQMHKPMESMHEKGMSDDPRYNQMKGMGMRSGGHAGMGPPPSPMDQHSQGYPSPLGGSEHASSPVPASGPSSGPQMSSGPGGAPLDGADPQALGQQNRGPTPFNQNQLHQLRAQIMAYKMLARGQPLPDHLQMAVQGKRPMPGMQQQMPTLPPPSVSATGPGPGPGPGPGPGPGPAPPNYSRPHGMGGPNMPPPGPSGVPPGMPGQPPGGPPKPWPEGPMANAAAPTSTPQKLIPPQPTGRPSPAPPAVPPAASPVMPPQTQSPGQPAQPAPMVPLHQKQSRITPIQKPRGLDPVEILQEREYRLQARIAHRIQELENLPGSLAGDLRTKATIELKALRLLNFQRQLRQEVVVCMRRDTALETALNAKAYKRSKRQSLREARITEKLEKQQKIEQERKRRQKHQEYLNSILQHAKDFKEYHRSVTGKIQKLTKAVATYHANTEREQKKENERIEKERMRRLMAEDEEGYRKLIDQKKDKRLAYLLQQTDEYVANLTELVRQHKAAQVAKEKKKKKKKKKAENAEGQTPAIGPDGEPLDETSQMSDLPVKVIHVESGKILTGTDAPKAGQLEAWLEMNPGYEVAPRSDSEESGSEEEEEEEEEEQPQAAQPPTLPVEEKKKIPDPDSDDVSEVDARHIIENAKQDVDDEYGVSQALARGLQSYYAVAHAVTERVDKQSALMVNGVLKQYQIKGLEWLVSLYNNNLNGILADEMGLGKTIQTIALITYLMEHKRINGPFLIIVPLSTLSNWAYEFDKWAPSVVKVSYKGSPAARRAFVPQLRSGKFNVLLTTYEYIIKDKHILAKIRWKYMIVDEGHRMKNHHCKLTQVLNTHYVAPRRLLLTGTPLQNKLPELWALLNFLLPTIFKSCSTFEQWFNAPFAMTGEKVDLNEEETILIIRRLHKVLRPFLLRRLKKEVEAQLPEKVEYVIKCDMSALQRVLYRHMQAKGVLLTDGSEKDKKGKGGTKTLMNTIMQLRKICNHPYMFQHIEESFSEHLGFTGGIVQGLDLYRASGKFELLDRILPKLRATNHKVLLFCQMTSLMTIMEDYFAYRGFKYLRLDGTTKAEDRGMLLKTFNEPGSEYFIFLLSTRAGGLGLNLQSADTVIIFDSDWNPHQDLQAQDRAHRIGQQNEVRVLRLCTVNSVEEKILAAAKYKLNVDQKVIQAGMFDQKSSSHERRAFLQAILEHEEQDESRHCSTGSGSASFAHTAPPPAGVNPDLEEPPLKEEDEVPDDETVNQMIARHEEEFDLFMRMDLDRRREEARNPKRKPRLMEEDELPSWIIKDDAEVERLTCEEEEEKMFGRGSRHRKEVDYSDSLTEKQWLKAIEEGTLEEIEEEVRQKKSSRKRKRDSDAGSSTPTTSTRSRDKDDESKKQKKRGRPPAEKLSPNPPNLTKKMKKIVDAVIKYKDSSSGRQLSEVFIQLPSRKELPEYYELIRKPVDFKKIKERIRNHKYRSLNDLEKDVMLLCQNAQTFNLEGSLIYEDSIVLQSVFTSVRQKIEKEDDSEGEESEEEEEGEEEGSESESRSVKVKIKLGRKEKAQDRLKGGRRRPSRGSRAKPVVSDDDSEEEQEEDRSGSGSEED
UniProt Q92769: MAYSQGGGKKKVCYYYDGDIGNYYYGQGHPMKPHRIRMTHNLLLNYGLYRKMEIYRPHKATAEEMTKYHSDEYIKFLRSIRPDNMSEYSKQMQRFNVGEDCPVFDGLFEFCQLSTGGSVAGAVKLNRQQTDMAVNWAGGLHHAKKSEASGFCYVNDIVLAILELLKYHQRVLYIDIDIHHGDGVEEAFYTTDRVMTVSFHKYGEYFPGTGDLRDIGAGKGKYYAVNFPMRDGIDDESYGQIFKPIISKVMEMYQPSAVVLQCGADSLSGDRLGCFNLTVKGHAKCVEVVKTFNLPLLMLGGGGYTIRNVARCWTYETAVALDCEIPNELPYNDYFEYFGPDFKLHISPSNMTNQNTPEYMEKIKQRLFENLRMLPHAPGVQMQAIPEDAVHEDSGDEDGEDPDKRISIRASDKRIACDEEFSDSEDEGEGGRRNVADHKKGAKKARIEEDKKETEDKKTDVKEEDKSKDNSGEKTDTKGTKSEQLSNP
UniProt P05412: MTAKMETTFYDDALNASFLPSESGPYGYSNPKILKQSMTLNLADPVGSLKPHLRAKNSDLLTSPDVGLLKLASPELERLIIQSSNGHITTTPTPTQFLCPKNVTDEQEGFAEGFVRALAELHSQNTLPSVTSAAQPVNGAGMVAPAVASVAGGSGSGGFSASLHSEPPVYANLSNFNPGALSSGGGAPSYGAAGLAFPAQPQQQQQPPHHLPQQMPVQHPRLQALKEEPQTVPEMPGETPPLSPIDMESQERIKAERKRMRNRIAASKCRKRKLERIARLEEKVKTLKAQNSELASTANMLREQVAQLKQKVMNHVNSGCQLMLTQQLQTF

What was measured:
[1] = biological target: T1, ATF2 (human (endogenous in K562 and in CD34+-derived erythroid cells)) (UniProt P15336); experiment: co-IP; 500 µg K562 nuclear extract, 2 µg ATF2 or Brg1 antibody (IgG control), protein A/G-agarose overnight, western blot
T1 sequence: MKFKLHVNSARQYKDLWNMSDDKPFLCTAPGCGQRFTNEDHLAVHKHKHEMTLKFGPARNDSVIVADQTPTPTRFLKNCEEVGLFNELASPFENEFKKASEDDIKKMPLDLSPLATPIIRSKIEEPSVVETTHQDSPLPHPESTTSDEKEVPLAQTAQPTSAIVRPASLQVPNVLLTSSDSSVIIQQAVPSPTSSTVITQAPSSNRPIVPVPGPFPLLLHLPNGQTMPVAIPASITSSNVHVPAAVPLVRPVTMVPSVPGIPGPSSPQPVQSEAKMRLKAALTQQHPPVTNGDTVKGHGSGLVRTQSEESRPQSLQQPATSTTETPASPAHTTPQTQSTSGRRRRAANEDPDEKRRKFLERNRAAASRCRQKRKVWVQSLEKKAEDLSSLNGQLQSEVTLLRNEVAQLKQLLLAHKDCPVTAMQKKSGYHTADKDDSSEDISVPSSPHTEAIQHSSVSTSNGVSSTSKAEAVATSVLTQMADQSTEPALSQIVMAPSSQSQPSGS

[2] = biological target: T2, His-FLAG-tagged ATF2 (human (cDNA from K562 cells)) (UniProt P15336); experiment: co-sedimentation; 10-30% sucrose gradient in HEMG buffer, 4°C; 0.6 M NaCl heparin sepharose fractions dialysed against HEMG; fractions 10-17 by western blot; co-migration from 2 mDa peaking at 700 kDa
T2 sequence: T1 sequence

[3] = biological target: CREB1 (human (endogenous in K562 and in CD34+-derived erythroid cells)) (UniProt P16220); experiment: co-IP; lysates (50 µg) of CD34+-derived erythroid cells at day 3, 7, 14 and 21 of erythropoietin-induced differentiation, IP with anti-CREB1 antibody (IgG control), western blot
[4] = biological target: Brg1 (human (endogenous in K562 and in CD34+-derived erythroid cells)) (UniProt P51532); experiment: co-IP; 500 µg K562 nuclear extract, 2 µg ATF2 or Brg1 antibody (IgG control), protein A/G-agarose overnight, western blot

Brg1 (from UniProt P51532 1-1647)
binding [1]: binds | binding [2]: binds

HDAC2 (from UniProt Q92769 1-488)
binding [3]: binds | binding [1]: binds | binding [4]: binds | binding [2]: binds

cJun (from UniProt P05412 1-331)
binding [4]: binds
